Consider 18 substances from article PMC4297356.

The assay deals with T1, Vipp1–GFP (Synechocystis Vipp1 tagged with green fluorescent protein at the C-terminus) (Synechocystis sp. PCC6803) (UniProt Q55707).
T1 sequence: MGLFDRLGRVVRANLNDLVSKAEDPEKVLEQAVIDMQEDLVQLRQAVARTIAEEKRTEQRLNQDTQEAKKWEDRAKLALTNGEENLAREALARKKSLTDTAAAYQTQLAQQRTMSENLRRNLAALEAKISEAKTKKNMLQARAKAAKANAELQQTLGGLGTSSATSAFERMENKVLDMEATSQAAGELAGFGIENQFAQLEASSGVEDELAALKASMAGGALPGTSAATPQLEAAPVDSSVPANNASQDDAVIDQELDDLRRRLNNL
Briefly: affinity purification with mass spectrometry; anti-GFP microbeads (μMACS column) on lysate of HL-exposed (600 μE m^−2 s^−1) Synechocystis vipp1–gfp cells broken without detergent; bound fraction on 10% SDS-PAGE, bands identified by MS/MS; compared with LL vipp1–gfp and HL wild-type cells.

No constants are given. Whether binding was seen depends on the method and setting. Binding seen in cells or lysates may run through a third protein. A yes stands for co-enrichment or nearness to the bait. Other partners may have been found. Tags and fused reporters may be left off the sequences shown.

For “ATP synthase subunit beta (from UniProt P26527 1-483)”, the binding result is recorded as “binds”.

Turning to Aconitate hydratase 2, the binding entry is on record as “binds”. As for “C-phycocyanin alpha chain (from UniProt Q54715 1-162)”, the entry is “binds”; as for “C-phycocyanin beta chain (from UniProt Q54714 1-172)”, “binds”; as for “Chaperone protein DnaK2 (from UniProt P22358 1-636)”, “binds”. In the case of “Elongation factor Tu (from UniProt P74227 1-399)” it was “binds”; in that of “Ferredoxin-NADP reductase (from UniProt Q55318 1-413)”, “binds”. In the case of Glycine-tRNA ligase beta subunit it was “binds”. For the substance “Light-dependent protochlorophyllide reductase (from UniProt Q59987 1-322)”, the binding result is given as “binds”. In the case of “Orange carotenoid-binding protein (from UniProt P74102 1-317)” it was “binds”; in that of “Photosystem I protein A1 (from UniProt P29254 1-751)”, “binds”. As for Phototaxis receptor PixJ1, the entry is “binds”; as for “Phycobiliprotein ApcE (from UniProt Q55544 1-896)”, “binds”; as for “Phycobilisome linker polypeptide (cpcC1) (from UniProt P73203 1-291)”, “binds”. In the case of “Phycobilisome linker polypeptide (cpcC2) (from UniProt P73204 1-273)” it was “binds”; in that of Polyphosphate kinase, “binds”.

As for Ribonuclease II, the binding entry is recorded as “binds”. As for “Ribulose bisphosphate carboxylase large chain (from UniProt P54205 1-470)”, the entry is “binds”.
